Paper PMC12179556
These are yes or no findings as the source states them, for the method shown. For some of these results: In cells and extracts the contact can be indirect. Some results given as binding are weak or reduced against the parent protein; the word gives no strength. For some of these results: Where a sequence is shown, tags or fusion partners need not be part of it.

Protein sequences, listed by entry. Tags and fused reporters are not part of them.
UniProt Q99JI1: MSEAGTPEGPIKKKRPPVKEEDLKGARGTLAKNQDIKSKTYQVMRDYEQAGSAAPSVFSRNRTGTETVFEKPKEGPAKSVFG

Key:
[1] = target: T1, SMPX-His (UniProt Q9DC77); experiment: pull-down; His pull-down: enrichment of MUSTN1 protein on binding beads holding SMPX-His, as for the GST pull-down; a heat shock protein as negative control; immunoblot with anti-GST; both purified
T1 sequence: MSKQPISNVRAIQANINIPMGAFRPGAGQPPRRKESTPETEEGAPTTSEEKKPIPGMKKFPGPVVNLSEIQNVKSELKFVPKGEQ

[2] = target: T2, SMPX-3×FLAG (mouse small muscle protein X-linked) (mouse) (UniProt Q9DC77); experiment: co-IP; C2C12 cells 48 h after transfection with the 3×FLAG construct; lysate rotated with anti-FLAG magnetic beads overnight at 4°C, washed three to five times with lysis buffer; Western blot
T2 sequence: T1 sequence

[3] = target: MUSTN1-3×FLAG (mouse musculoskeletal embryonic nuclear protein 1) (mouse) (UniProt Q99JI1); experiment: as above
[4] = target: GST-MUSTN1 (not stated (pig or mouse cDNA cloned)) (UniProt Q99JI1); experiment: pull-down; GST pull-down: 20 μL beads bound to GST-MUSTN1 incubated with SMPX-His in binding buffer (50 mM Tris-HCl, 100 mM NaCl, 10% glycerol, 0.1% Tween-20, 1 mM DTT) at 4°C for 4 h; five washes; immunoblot with anti-His; both purified

GST-MUSTN1 (from UniProt Q99JI1 1-82)
binding [1]: binds

Musculoskeletal embryonic nuclear protein 1 (MUSTN1), endogenous in C2C12 (from UniProt Q99JI1 1-82)
binding [2]: binds

B1: Small muscle protein X-linked (SMPX), endogenous in C2C12 (protein, UniProt Q9DC77 1-85)
chain: T1 sequence
binding [3]: binds

B2: SMPX-His (protein, UniProt Q9DC77 1-85)
chain: T1 sequence
binding [4]: binds
